## Percent effect of library compounds

Source: ChEMBL document CHEMBL3988442, “University of Dundee, Small-Polar-MMV Screening Library” (2021).

T. brucei: 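Whole-parasite assay of Trypanosoma brucei over 72 hours; the read-out is not stated. Tested at 30 µM. Direction is inferred from retests: higher values go with stronger inhibition. Values scatter widely below zero; nearly all retest evidence comes from the higher of the two concentrations used. Of about 64,000 compounds tested this way, about 940 (1.5%) reached 50% or more in at least one test.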
Toxoplasma: 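Assay of Toxoplasma gondii numbers, read through their beta-galactosidase reporter with a colour substrate. Compounds at 10 µM. Higher reads as fewer parasites (inferred from which compounds were picked for retests). Of about 67,000 compounds tested this way, about 260 (0.38%) reached 50% or more in at least one test.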

Results are given as percent effect. The record does not define 0% and 100%; most values in the screen are far below 50% and negative numbers occur (in some assays of this library far below -100). Compounds were drawn at random from those tested, without regard to their results. A dash means the value is not listed here; it may have been measured.

compound	T. brucei	Toxoplasma
Clc1ccc2nc(N3CCC(NCCCC4CCOC4)CC3)sc2c1 (stereo not drawn)	69.37	-1.385
CCCS(=O)(=O)CCN1CCN(C(C#N)c2ccccc2)CC1 (stereo not drawn)	4.794	-
O=C(NCCCO)C1(N2CCCCC2)Cc2ccccc2C1	1.724	-5.492
CCCc1nnsc1C(=O)NCC(O)c1cccs1 (stereo not drawn)	-19.72	-3.564
O=C(CN1CCc2cncnc2C1)NC1CCCCNC1=O (stereo not drawn)	-55.33	4.628
CC(=O)N1CCC2(CC1)CC(C(C)C)=NO2	-	-12.45
CCc1nnc(NC(=O)c2c3c(nn2C2CCS(=O)(=O)C2)CCC3)s1 (stereo not drawn)	-1.133	-8.063
CSCC[C@@H](CO)n1ccnc1-c1ccncc1	-75.35	11.35
Cc1ccc(-c2cn[nH]c2C2CCCN(c3nccc(N)n3)C2)cc1 (stereo not drawn)	46.79	26
O=C(Cn1ccc2sccc2c1=O)NCCC1=CCCCC1	7.535	30.46
CCN(C)Cc1nc(-c2ccccc2NS(C)(=O)=O)oc1C	-29.64	8.636
Cc1ccc(-c2cc(CN3CCOC(Cn4cncn4)C3)on2)cc1 (stereo not drawn)	5.202	-4.004
CN(C)c1nccc(C2CCCN2S(=O)(=O)c2cn(C)cn2)n1 (stereo not drawn)	-3.79	15.23
O=C(O)C(F)(F)F.[H][C@]12CCC(=O)N(c3ccccc3)[C@@]1([H])CCN2c1ncc(CC)cn1	-6.282	-7.78
O=C(O)C(F)(F)F.[H][C@@]12OCCN(C(=O)C3CCOCC3)[C@@]1([H])CC[C@H]2OCc1ccncc1	-17.19	0.1918
c1ccc(OCCSC2=NCCN2)cc1	-0.6794	0.9798
Cc1cnn(C(C)C(=O)NCC2CCN(c3cnn(C)c(=O)c3)CC2)c1 (stereo not drawn)	-45.51	3.11
CCc1ccc(-c2cn3c(C(=O)N[C@H](C(N)=O)[C@@H](C)O)csc3n2)cc1	-23.28	-4.869
O=C(O)C(F)(F)F.[H][C@@]12CCN(c3nnc(C)s3)C[C@@]1([H])O[C@H](c1nc(C)no1)C2	-108.1	-10.84

Some entries from above, unchanged:

* CCN(C)Cc1nc(-c2ccccc2NS(C)(=O)=O)oc1C : T. brucei: -29.64%; Toxoplasma: 8.636%
* Cc1ccc(-c2cn[nH]c2C2CCCN(c3nccc(N)n3)C2)cc1 (stereo not drawn) : T. brucei: 46.79%; Toxoplasma: 26%